Measurements taken from article PMC6751249.
Results are given in words; binding and its absence hold for the method and conditions named. In cells and extracts the contact can be indirect. Some entries that bind do so weakly or less than the wild type.

The chains behind the UniProt entries cited, without tags or fusion partners. Residues count along the entry.
UniProt P11021, residues 19-654: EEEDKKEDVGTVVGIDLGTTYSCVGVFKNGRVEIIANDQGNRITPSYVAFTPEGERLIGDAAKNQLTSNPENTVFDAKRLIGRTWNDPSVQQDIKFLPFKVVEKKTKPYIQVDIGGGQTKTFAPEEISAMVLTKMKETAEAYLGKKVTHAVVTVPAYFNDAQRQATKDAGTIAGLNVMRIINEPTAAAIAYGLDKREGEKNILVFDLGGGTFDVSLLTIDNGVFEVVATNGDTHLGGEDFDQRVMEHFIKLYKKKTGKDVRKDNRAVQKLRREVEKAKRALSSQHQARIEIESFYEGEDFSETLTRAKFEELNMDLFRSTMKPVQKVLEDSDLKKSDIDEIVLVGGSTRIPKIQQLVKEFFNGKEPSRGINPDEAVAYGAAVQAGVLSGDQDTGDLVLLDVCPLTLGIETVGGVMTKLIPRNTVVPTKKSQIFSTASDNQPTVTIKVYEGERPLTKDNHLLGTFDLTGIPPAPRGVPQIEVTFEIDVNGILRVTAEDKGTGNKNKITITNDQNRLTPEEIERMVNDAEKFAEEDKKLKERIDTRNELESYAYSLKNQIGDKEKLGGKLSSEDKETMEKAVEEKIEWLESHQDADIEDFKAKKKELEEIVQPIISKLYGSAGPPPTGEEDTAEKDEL

Target: T1, Dentin matrix protein 1 (human (endogenous in hPDLSCs)) (UniProt Q13316)
T1 sequence: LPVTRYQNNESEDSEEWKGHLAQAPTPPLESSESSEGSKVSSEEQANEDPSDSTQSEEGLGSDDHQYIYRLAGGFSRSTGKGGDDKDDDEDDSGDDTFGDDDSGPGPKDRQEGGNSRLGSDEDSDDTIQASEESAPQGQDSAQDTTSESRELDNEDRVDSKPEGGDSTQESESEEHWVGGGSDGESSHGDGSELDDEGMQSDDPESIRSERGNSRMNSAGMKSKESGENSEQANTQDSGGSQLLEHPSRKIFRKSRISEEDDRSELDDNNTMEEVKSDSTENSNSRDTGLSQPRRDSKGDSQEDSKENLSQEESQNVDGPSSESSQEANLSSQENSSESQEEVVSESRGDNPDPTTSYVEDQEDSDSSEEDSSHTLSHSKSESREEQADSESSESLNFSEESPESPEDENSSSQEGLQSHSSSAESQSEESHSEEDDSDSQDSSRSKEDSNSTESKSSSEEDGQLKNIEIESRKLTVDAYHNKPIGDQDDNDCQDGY
Experiment: co-IP; membrane fraction (Mem-PER kit) of hPDLSCs overexpressing GRP78; anti-DMP1 (in house) or control IgG, 10 ug, on Protein A/G magnetic beads, overnight at 4 °C; Western blot probed with anti-GRP78 (1:1000)

In the case of “Glucose regulated protein-78 (from UniProt P11021 19-654)”, the binding is reported as “binds”.
